Measurements published in the supplement of paper PMC3334620.
The full ranking holds about 33,000 sequences; the median of “E-score (-0.5 to 0.5)” is about -0.0034, and the highest 2% start at about 0.25. The list shows a part of the results.

molecular target: T1, Yap3 (UniProt P38749); test: PBM E-score (8-mer binding enrichment) (E-score (-0.5 to 0.5)); higher = stronger / more preferred TF binding; details: protein concentration: 100 nM; construct: GST-full length
T1 sequence: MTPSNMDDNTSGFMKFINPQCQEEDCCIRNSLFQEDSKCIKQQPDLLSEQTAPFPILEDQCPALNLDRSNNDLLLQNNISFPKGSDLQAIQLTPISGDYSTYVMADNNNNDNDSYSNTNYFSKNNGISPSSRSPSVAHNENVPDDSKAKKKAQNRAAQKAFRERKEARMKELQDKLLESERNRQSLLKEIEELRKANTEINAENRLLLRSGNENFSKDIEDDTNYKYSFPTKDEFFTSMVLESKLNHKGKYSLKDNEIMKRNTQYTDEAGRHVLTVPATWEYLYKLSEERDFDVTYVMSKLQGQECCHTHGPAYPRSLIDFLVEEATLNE
In short: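 Using PURExpress in vitro transcription/translation, GST-tagged yeast transcription factors were made in full-length or DNA-binding-domain form. These were applied at about 100-200 nM to double-stranded universal all-10-mer Agilent arrays, and bound protein was detected with fluorescent anti-GST. Scans were normalised with masliner before the Universal PBM Analysis Suite assigned E-scores to ungapped eight-base words pooled with their reverse complements.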

Row | Sequence | PBM E-score
1 | ATTTTGCC | 0.104
2 | CACGCACG | -0.123
3 | ACAGAGAT | 0.0805
4 | GTCCGGAA | -0.042
5 | ACTAGGCA | -0.0459
6 | CATCGTGG | -0.112
7 | ACCGTGGG | -0.322
8 | TGCAGTAA | 0.116
9 | AAAATCAA | 0.19
10 | AACACCGC | -0.0117
11 | GGAACGCC | -0.131
12 | ACGGCCTG | -0.215
13 | CCACCTGA | 0.105
14 | ATTTGCAA | 0.125
15 | ATCACTAC | -0.073
16 | TGTCTTAA | 0.102
17 | AGTTCGGA | 0.0398
18 | TAAAGAGA | 0.108
19 | GTCACTCA | 0.104
20 | CAGGCGGA | 0.081
21 | GCAGCTCA | -0.187
22 | TGATAACA | 0.258
23 | CAGCGATC | -0.00682
24 | ACTGCGTG | -0.215
25 | GCAATCTA | 0.0687

Row | Sequence | PBM E-score
26 | CCTATCTA | -0.118
27 | AAAACCAG | 0.112
28 | ATGGAATA | 0.248
29 | CCTAGAAC | -0.00465
30 | CGCCTCAG | -0.135
31 | ATTTGATC | -0.0998
32 | AATACCCC | -0.134
33 | GATTGGAC | 0.0901
34 | TAATCCCA | 0.0293
35 | ATCCGTCG | 0.0317
36 | GCAACCAC | 0.0149
37 | ACGTTGCC | -0.0696
38 | ACCCATTG | -0.136
39 | CTGGTCTC | -0.304
40 | GAACTGAC | -0.0453
41 | ACAACGCA | 0.0858
42 | CCACTAAA | 0.0547
43 | AGTTGGAG | -0.0405
44 | AATATCTC | 0.263
45 | ATATTGCG | 0.145
46 | GTCCTCGA | -0.0718
47 | ACTCATTA | 0.186
48 | ACAGAGCA | 0.0953
49 | AGCAACAA | 0.0864
50 | ACGGTGAT | 0.00964

Reformatted as comma-separated lines: part of the list above.
Row,Sequence,PBM E-score
35,ATCCGTCG,0.0317
36,GCAACCAC,0.0149
37,ACGTTGCC,-0.0696
38,ACCCATTG,-0.136
39,CTGGTCTC,-0.304
40,GAACTGAC,-0.0453

Further records:

Row | Sequence | PBM E-score
51 | CAACGCGC | 0.249
52 | GGATAAAC | 0.0509
53 | AAACTAGC | 0.0132
54 | AAAGCACA | 0.152
55 | AACCTGCA | 0.037
56 | GGTTACAA | 0.232
57 | AACGGGCG | -0.00658
58 | AATACATA | 0.199
59 | AAGAAATC | -0.0352
60 | GAGAATAA | 0.193
61 | CCCCGTGA | -0.239
62 | CGCAGGTC | -0.353
63 | GAGGGGTA | -0.191
64 | GCTCATGA | -0.0127
65 | AGAGCGAA | 0.0221
66 | CATTAGAC | -0.252
67 | ATACCTAA | 0.273
68 | ATACGCCG | -0.0794
69 | GGGTTTAC | 0.0092
70 | TATAAATA | 0.301
71 | GATCTCAA | 0.0691
72 | ACTGGCAC | -0.24
73 | CTGAGACC | -0.164
74 | GGATGGCC | -0.268
75 | AGTGCCAA | -0.128

2 entries from above in another layout:
ACTGGCAC
  PBM E-score = -0.24
CTGAGACC
  PBM E-score = -0.164

Later entries.

Row | Sequence | PBM E-score
76 | AGCGAGTA | 0.238
77 | AATAGTGA | 0.0687
78 | AGGGAGTG | -0.172
79 | AGCACGTG | 0.127
80 | AGAGGCAG | -0.122
81 | ACTAGCCC | -0.0674
82 | TCATCGCA | -0.0781
83 | CCAGGAAG | -0.0698
84 | GCTAGTAC | -0.00882
85 | AACTGTAT | 0.0673
86 | CCTCATAG | -0.029
87 | AGAGCCTC | -0.195
88 | CTGGCTCC | -0.223
89 | CAGAGATA | 0.0948
90 | GTTCCTTA | 0.00634
91 | ACGGGAAG | -0.198
92 | CAGAGTAA | -0.0263
93 | AATGCGTC | -0.027
94 | CGGCTACC | -0.0818
95 | ACAGCCAT | -0.0294
96 | AACTCCGT | 0.0734
97 | AAGAAAGC | 0.0406
98 | AGTTCGAT | 0.124
99 | AATGGGGG | -0.279
100 | AAGGGACC | 0.0031

Row | Sequence | PBM E-score
101 | AACGAAAT | 0.221
102 | AGGCAACT | 0.0833
103 | TATCCTCA | 0.176
104 | AGAATGGC | -0.0555
105 | ACAACACA | 0.122
106 | CAACCGAA | 0.0856
107 | GCGGGTAC | -0.102
108 | ACGGTAAG | 0.066
109 | GCAGTACC | -0.0583
110 | CAGGGCAC | -0.137
111 | AACTCAAA | 0.187
112 | AAGCGACG | -0.185
113 | TACACGGA | 0.175
114 | GCCACAGC | -0.146
115 | ATCTGTAG | -0.103
116 | TCAGATGA | 0.159
117 | CGTAAGCC | 0.212
118 | GTAGGTGA | -0.137
119 | CTCGACTA | -0.0539
120 | CGATGGCC | -0.0485
121 | AGGGGCCA | -0.224
122 | AGTAATAG | 0.207
123 | GCGCTCTA | -0.00542
124 | TAACGCGA | 0.0719
125 | CCGGTAAG | -0.057

Row | Sequence | PBM E-score
126 | TACGGAGA | 0.12
127 | CTGTACAA | 0.0137
128 | TGACGAAA | 0.104
129 | GATCGCGA | 0.0862
130 | AAAAAGCC | 0.17
131 | AGATTGTA | 0.154
132 | TATCTAAA | 0.0756
133 | GGTTTCGA | 0.0338
134 | ATGGGGAG | -0.131
135 | TCCTGCAA | -0.0566
136 | CGTACGCA | -0.0879
137 | GGGGCGAC | -0.0468
138 | TGGCATAA | 0.185
139 | CGACATAG | 0.00433
140 | AAAGGACG | -0.0362
141 | AAAAATTG | 0.0568
142 | TGACTGCA | -0.167
143 | CTGGAGAC | -0.109
144 | AATCAACT | 0.157
145 | CAAATAAC | 0.234
146 | CGCCATAC | 0.00827
147 | CCGAAGTA | -0.118
148 | AGTTTTAT | 0.199
149 | TAGAAGAA | -0.021
150 | AACCATTC | 0.0433

Row | Sequence | PBM E-score
151 | ACATCGCC | -0.00636
152 | CAATGCCA | 0.00637
153 | CGTTCTTA | 0.131
154 | AAAGCCAC | 0.0244
155 | AGGCCCGC | -0.118
156 | GTCAAAAC | 0.137
157 | GATAGTAA | 0.11
158 | TATGTACA | 0.155
159 | CACATCGC | -0.011
160 | AAAACGTC | 0.0521
161 | GTGAGCTA | 0.0321
162 | CCCACTAG | -0.223
163 | ATATAAAG | 0.236
164 | GGCGCATA | 0.0853
165 | TGCATCAA | 0.131
166 | ATCATCCA | 0.0816
167 | AACCGTCT | -0.209
168 | TGGCCTAA | -0.0203
169 | ACTGCCTC | -0.109
170 | CAAGACCG | -0.00767
171 | CTCTGAAG | -0.26
172 | CATGAGAC | -0.154
